Assay results from PubChem BioAssay AID504467 (National Center for Advancing Translational Sciences (NCATS), 2011).
Among all 330,000 compounds or so, about 7,700 (2.3%) were called active. The shares of active, inactive and inconclusive entries below differ from those in the screen. The call rests on the fitted dose curve; in most records, active means well fitted inhibition curve with a large enough effect; inconclusive means small, poorly fitted or top-dose-only effect, or effect the other way; inactive means flat fitted curve, though single readings scatter. A potency beside an inconclusive call is a rough fit, not a confirmed value.

Assay: qHTS screen for small molecules that inhibit ELG1-dependent DNA repair in human embryonic kidney (HEK293T) cells expressing luciferase-tagged ELG1; further: nearly all actives have a fitted effect of over 55% in size
Details: HEK293T ELG1-luciferase reporter, luminescence, 16 h, DNA damage induced by 5-fluorouridine; activity change, negative = inhibition: at 46.1 µM (top of the series)
Method in brief: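 Quantitative HTS, concentration-response format. 2,000 cells/well co-treated with 5-fluorouridine and compound, 16 hr in 5% CO2 at 37 °C; ONE-Glo luminescence read after 30 min.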
On the % scale 0 is the no-effect control and ±100 the full control effect; potency means the concentration at half of the fitted maximal effect.

Structure (SMILES)	Potency	activity change, negative = inhibition
COc1cc(NS(=O)(=O)c2ccc(C)c(C)c2)c(OC)cc1Cl	inconclusive: 25.9 µM [inhibitor, partial curve]	–
CCN(CC(=O)Nc1c(F)cccc1F)C(=O)c1ccccn1	–	inactive: 25.1%
CNC(=S)NNC(=O)c1cn(C)nc1C	–	inactive: 11.7%
N#Cc1ccc(C(c2nnnn2C2CCCC2)N2CCC(Cc3ccccc3)CC2)cc1 (stereo unspecified)	inconclusive: 3.16 µM [inhibitor, partial curve, poor fit]	–
CCC(NC(=S)NCc1ccc(F)cc1)c1ccc(C(C)C)cc1 (stereo unspecified)	inconclusive: 25.9 µM [inhibitor, single point]	–
COc1ccc(C2(O)CCN(CC(=O)Nc3nc(-c4ccccc4)cs3)CC2)cc1	active: 23.1 µM	–
CC(C)Oc1ccc(C(=O)NC2CCS(=O)(=O)C2)cc1 (stereo unspecified)	inconclusive: 32.6 µM [activator, single point]	–
CCc1ccc(Nc2ccc(C(=O)O)cc2[N+](=O)[O-])cc1	–	inactive: 4.85%
Cc1ccc(NC(=S)N(CCN(C)C)Cc2cccs2)cc1C	inconclusive: 3.66 µM [inhibitor, single point]	–
Cc1ccc2c(CN3CCC(C(N)=O)CC3)cc(=O)oc2c1C	inconclusive: 23.1 µM [activator, single point]	–
Cc1nn(-c2ccccc2)c(C)c1/C=N/NC(=O)c1cc(-c2cccc3ccccc23)n[nH]1	active: 16.4 µM	–
COc1ccccc1-c1nnc(SCC(=O)Nc2ccc(N3CCOCC3)cc2)n1N	inconclusive: 18.3 µM [activator, single point]	–
CCCCSc1cc(C)nc(N)n1	inconclusive: 11.6 µM [activator, partial curve, poor fit]	–
COc1ccc(NC2CCCN(C(=O)c3cc4ncccn4n3)C2)cc1 (stereo unspecified)	inconclusive: 23.1 µM [activator, partial curve]	–
c1ccc(Cn2cc(-c3cccnc3)cn2)cc1	inconclusive: 32.6 µM [activator, single point]	–
COc1ccc2[nH]c(=O)c(-c3noc(-c4ccc(F)cc4)n3)cc2c1	inconclusive: 16.4 µM [activator, partial curve, poor fit]	–
Cc1ccc2c(c1)C(c1ccc(F)cc1)N(C(=O)c1cc3ccccc3oc1=O)CC(=O)N2 (stereo unspecified)	–	inactive: -3.61%
O=C(N/N=C/C(Br)=C\c1ccccc1)c1ccco1	inconclusive: 16.4 µM [activator, partial curve]	–
Cc1ccc(-c2nnc(N(C)C(=O)c3ccccn3)s2)cn1	inconclusive: 16.4 µM [activator, partial curve, poor fit]	–
CN(Cc1ccc(Cl)cc1)C(=O)CCl	–	inconclusive: 72.2% [activator]
CCn1c(N2CCN(Cc3ccc([N+](=O)[O-])cc3)CC2)nc2ccccc21	inconclusive: 23.1 µM [inhibitor, single point]	–
O=C(NCCCN1CCCC1=O)c1cc(COc2ccc(F)cc2F)on1	inconclusive: 20.6 µM [activator, partial curve, poor fit]	–
S=C(NCCCN1CCOCC1)N(Cc1ccccc1)Cc1ccccc1	–	inactive: -6.79%
Cc1ccc(C)c(S(=O)(=O)N2CCN(C(=O)c3ccncc3)CC2)c1	–	inactive: 3.84%

Structure (SMILES)	Potency	activity change, negative = inhibition
CCOc1ccc(N=Nc2c(=O)[nH]n3c(=O)cc(C)[nH]c23)cc1	inconclusive: 17.8 µM [activator, single point]	–
COc1ccc(NC(=O)[C@@H](NC(=O)c2ccccc2)C(C)C)cc1S(=O)(=O)N1CCCCC1	–	inactive: 3.57%
C/C(=N/NC(=O)c1cc(-c2ccccc2)nc2c(Cl)cccc12)c1cccnc1	inconclusive: 18.3 µM [inhibitor, single point]	–
Cc1ccc2c(c1)C(=O)C(=O)N2CCCOc1ccccc1C	–	inactive: 12.2%
N#CCSc1nnc(Cc2cccc3ccccc23)n1C1CCCCC1	–	inactive: -12%
O=C(O)c1cccc(CSc2ncn[nH]2)c1	–	inactive: 9.31%
COc1ccc(C(=O)NNC(=O)CSc2nnc(C)n2C)cc1	–	inactive: -9.2%
O=C(CNc1ccc2c(c1)OCO2)N/N=C\c1cn(Cc2ccccc2)c2ccccc12	inconclusive: 32.6 µM [inhibitor, single point]	–
COc1cc(CNc2ccc(CNc3ncn[nH]3)cc2)cc(Cl)c1OCc1ccccc1	inconclusive: 14.6 µM [inhibitor, partial curve, poor fit]	–
COc1ccc(N(CC(=O)NN=C2CCN(C)CC2)S(=O)(=O)c2ccc(NC(C)=O)cc2)cc1	–	inactive: -2.4%
COc1ccccc1C(=O)NC(CCSC)C(=O)NNC(=O)C(C)Oc1ccccc1F (stereo unspecified)	–	inactive: -2.18%
CCCn1c(C)cc(C(=O)COC(=O)c2nccnc2N)c1C	inconclusive: 2.59 µM [activator, partial curve]	–
COc1ccc(NC(=O)c2cc(C)no2)cc1Cl	–	inactive: 24.2%
Cc1[nH]c2ccccc2c1C(=O)C(C)OC(=O)c1ccc([N+](=O)[O-])o1 (stereo unspecified)	–	inactive: 1.1%
O=C1C2C3C=CC(CO)(O3)C2C(=O)N1c1ccccc1-c1ccccc1 (stereo unspecified)	–	inactive: 5.68%
COc1ccc(OC)c(NC(=O)c2ccc(CSc3ncccn3)cc2)c1	inconclusive: 20.6 µM [inhibitor, partial curve, poor fit]	–
CCc1ccccc1NC(=O)c1ccc(-c2csc(C)n2)cc1	inconclusive: 4.61 µM [activator, full curve]	–
O=C(Nc1ccccc1Cl)N1CCCN(c2nc(-c3ccccc3)ns2)CC1	inconclusive: 23.1 µM [inhibitor, partial curve, poor fit]	–
COc1cc(-c2nc(C)c(C(C)=O)n2O)ccc1OCC(=O)Nc1ccc(F)cc1	inconclusive: 29.1 µM [inhibitor, single point]	–
COc1ccc(-c2cc(C(=O)Nc3cc(OC)cc(C(=O)Nc4cccc(C(F)(F)F)c4)c3)[nH]n2)cc1	–	inactive: -4.44%
CCCC(=O)NC(=S)Nc1ccc(NC(=O)c2cccs2)cc1	inconclusive: 16.4 µM [inhibitor, partial curve, poor fit]	–
COC(=O)c1cccc(NC(=O)c2onc3c2CCCC3)c1	inconclusive: 0.651 µM [activator, full curve]	–
CCCCNc1c(N2CCN(C(=O)OCC)CC2)c(=O)c1=O	inconclusive: 10.3 µM [activator, partial curve]	–
CCN(CC)S(=O)(=O)c1cccc(C(=O)Nc2nnc(C)s2)c1	inconclusive: 3.26 µM [activator, partial curve, poor fit]	–

Part of the list above in order of formula weight, rising.
Structure (SMILES)	Potency	activity change, negative = inhibition
CNC(=S)NNC(=O)c1cn(C)nc1C	–	inactive: 11.7%
CCN(CC)S(=O)(=O)c1cccc(C(=O)Nc2nnc(C)s2)c1	inconclusive: 3.26 µM [activator, partial curve, poor fit]	–
S=C(NCCCN1CCOCC1)N(Cc1ccccc1)Cc1ccccc1	–	inactive: -6.79%
COc1ccc(C2(O)CCN(CC(=O)Nc3nc(-c4ccccc4)cs3)CC2)cc1	active: 23.1 µM	–
O=C(CNc1ccc2c(c1)OCO2)N/N=C\c1cn(Cc2ccccc2)c2ccccc12	inconclusive: 32.6 µM [inhibitor, single point]	–

The list goes on:

Structure (SMILES)	Potency	activity change, negative = inhibition
Cc1ccc(S(=O)(=O)c2cn(C)c3cc(N4CCN(C)CC4)c(F)cc3c2=O)c(C)c1	–	inactive: 20.6%
Cc1cccc(C)c1NC(=S)NCCc1ccc(O)c(O)c1	inconclusive: 29.1 µM [inhibitor, single point]	–
CNCc1ccc(OCc2ccccc2)c(OC)c1	inconclusive: 20.6 µM [activator, single point]	–
CC(=O)Nc1ccc(NC(=O)C2CCCN2C(=O)NC2CCCCC2)cc1 (stereo unspecified)	inconclusive: 20.6 µM [activator, partial curve, poor fit]	–
COc1ccc(NC(=O)Nc2nc(C)cc(C)n2)c(OC)c1	inconclusive: 5.8 µM [inhibitor, partial curve, poor fit]	–
CCOC(=O)c1nc(NNC(=O)c2ccc([N+](=O)[O-])cc2)sc1C	active: 16.4 µM	–
O=C(Nc1ncc(Cc2ccc(SC(F)F)cc2)s1)c1ccccc1	inconclusive: 18.4 µM [activator, partial curve]	–
CCOC(=O)C1CCN(S(=O)(=O)c2ccc(-n3cnnn3)c(C)c2)CC1	inconclusive: 7.31 µM [inhibitor, partial curve]	–
CCCn1c(SCC(=O)NC)nc2sc3c(c2c1=O)CCC3	inconclusive: 8.2 µM [activator, partial curve]	–
COc1ccc(-n2c(C)cc(/C=C3\SC(=O)NC3=O)c2C)cc1	inconclusive: 20.6 µM [activator, single point]	–
COc1ccc(C2c3cc(OC)c(OC)cc3CCN2S(C)(=O)=O)cc1OC (stereo unspecified)	inconclusive: 20.6 µM [inhibitor, partial curve, poor fit]	–
CCOC(=O)N1CCC(Nc2nc3ccccc3nc2NS(=O)(=O)c2ccc(Cl)cc2)CC1	inconclusive: 2.31 µM [activator, partial curve, poor fit]	–
CC(C)C1CC(CCN)(c2ccccc2)CCO1 (stereo unspecified)	–	inactive: -1.8%
Cc1ccc(NC2CC(C)NC(=S)N2)cc1 (stereo unspecified)	inconclusive: 16.4 µM [activator, single point]	–
N#Cc1ccccc1NC(=O)CN1CCN(c2ccccn2)CC1	–	inactive: -0.547%
O=C(Nc1ccccc1)c1ccc(NCCc2ccccc2)c([N+](=O)[O-])c1	inconclusive: 5.8 µM [activator, full curve, poor fit]	–
Cc1ccc(C(=O)Nc2cccc(S(=O)(=O)N3CCCCC3)c2)cc1[N+](=O)[O-]	active: 11.2 µM	–
CCC(C)(C)c1ccc(OC(=O)c2cccnc2Cl)cc1	–	inactive: 11.9%
O=C(N/N=C/c1ccsc1)c1ccccn1	inconclusive: 16.4 µM [activator, partial curve]	–
COc1cc2sc3ccc(-c4ccc(CN5CCOCC5)cc4)cc3c(=O)c2cc1OC	inconclusive: 29.1 µM [inhibitor, single point]	–
COCCN1C=C(C(=O)OC)C(c2ccc3c(c2)OCO3)C(C(=O)OC)=C1	–	inactive: 6.35%
O=C(CC1Nc2ccccc2NC1=O)c1ccccc1 (stereo unspecified)	inconclusive: 2.91 µM [activator, full curve]	–
COc1ccc(S(=O)(=O)N2CCOCC2)cc1NC(=O)COC(=O)c1[nH]c(C)c(C(C)=O)c1C	inconclusive: 13 µM [inhibitor, partial curve, poor fit]	–
